Results published in US20140235776A1, “AMINOALCOHOL COMPOUNDS AND THEIR USE AS ZERO OR LOW VOC ADDITIVES FOR PAINTS AND COATINGS” (ANGUS CHEMICAL COMPANY, priority 2011, published 2014).

Test: Opacity of paint film after 5 freeze-thaw cycles (Sheen Micromatch Plus)
Conditions: additive 2 wt %, 150 micron film dried 7 days

| Compound | Opacity (Sample) |
| --- | --- |
| OCC(O)CNCCN(CCNCC(O)CO)CC(O)CO (stereo not drawn) [F/T Agent 1, 3,3′-((((2,3-dihydroxypropyl)azanediyl)bis(ethane-2,1-diyl))bis(azanediyl))bis(propane-1,2-diol)] | 95.96 |
| OCC(O)CN(CCN(CC(O)CO)CC(O)CO)CCN(CC(O)CO)CC(O)CO (stereo not drawn) [F/T Agent 2, 3,3′,3″,3′′′-((((2,3-dihydroxypropyl)azanediyl)bis(ethane-2,1-diyl))bis(azanetriyl))tetrakis(propane-1,2-diol)] | 95.9 |
| CC(O)CO (stereo not drawn) [Propylene Glycol, propylene glycol, reference compound] | 95.75 |
